Measured values taken from the supplement of paper PMC10849652.
Some of the results follow. Residues, ends and D or L forms follow the SMILES beside them. *: point of attachment. Cbz = O=C(OCc1ccccc1)*

By UniProt entry, the sequences of proteins in these tests, tags left out. Where a name states a change or a piece, a line headed by the entry shows the natural chain unless it says otherwise.
UniProt P55854, whole entry, looked up: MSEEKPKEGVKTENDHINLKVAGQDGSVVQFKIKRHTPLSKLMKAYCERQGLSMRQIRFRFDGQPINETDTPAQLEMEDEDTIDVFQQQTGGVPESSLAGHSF
UniProt Q96SI9: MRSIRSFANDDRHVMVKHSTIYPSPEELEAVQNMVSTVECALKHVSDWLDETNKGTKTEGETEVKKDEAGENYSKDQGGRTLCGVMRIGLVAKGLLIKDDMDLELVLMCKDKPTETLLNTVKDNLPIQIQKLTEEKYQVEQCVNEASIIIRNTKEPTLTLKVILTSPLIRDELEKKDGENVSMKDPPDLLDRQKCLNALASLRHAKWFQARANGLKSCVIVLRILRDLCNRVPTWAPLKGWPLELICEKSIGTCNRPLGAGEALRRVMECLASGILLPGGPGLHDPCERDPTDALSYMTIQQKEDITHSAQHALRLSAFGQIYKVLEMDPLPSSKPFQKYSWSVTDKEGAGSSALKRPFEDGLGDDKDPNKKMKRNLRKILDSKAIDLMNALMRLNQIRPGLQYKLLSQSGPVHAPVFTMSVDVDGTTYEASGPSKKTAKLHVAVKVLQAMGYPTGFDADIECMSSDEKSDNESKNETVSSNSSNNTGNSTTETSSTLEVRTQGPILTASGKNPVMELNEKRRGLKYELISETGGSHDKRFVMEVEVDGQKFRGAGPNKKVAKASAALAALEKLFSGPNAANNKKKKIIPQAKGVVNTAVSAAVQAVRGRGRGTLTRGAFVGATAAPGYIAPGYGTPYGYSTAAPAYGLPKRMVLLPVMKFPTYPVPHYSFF
UniProt Q13277: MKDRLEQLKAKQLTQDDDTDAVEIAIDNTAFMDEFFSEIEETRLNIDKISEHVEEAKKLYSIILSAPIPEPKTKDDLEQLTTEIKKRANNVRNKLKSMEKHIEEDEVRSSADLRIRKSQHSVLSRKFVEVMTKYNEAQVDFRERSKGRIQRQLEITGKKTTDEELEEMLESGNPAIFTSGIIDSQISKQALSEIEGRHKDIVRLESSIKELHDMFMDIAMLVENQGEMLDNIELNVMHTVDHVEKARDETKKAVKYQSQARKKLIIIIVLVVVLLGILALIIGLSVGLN
UniProt Q8TCJ2: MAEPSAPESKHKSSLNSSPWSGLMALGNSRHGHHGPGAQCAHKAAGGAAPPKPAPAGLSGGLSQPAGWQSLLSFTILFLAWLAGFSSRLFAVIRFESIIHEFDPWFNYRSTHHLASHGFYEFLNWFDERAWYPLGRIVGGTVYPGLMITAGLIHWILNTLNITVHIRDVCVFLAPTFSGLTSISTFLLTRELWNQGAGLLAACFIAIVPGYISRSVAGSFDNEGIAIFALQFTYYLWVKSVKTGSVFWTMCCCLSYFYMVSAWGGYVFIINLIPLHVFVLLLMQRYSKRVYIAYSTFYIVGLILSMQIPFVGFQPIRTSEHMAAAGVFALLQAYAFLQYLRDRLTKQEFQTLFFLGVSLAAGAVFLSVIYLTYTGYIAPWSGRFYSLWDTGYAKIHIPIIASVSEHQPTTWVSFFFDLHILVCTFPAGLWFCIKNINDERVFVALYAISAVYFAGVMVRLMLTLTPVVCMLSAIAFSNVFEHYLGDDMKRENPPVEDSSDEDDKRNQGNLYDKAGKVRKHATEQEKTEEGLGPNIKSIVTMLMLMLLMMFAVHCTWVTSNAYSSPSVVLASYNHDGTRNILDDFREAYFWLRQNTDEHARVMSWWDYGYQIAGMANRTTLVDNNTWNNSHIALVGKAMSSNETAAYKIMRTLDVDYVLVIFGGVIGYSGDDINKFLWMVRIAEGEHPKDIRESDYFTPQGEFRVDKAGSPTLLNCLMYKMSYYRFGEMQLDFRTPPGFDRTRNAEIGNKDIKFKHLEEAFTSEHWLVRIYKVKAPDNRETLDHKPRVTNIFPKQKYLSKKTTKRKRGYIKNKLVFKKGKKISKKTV
UniProt O14662: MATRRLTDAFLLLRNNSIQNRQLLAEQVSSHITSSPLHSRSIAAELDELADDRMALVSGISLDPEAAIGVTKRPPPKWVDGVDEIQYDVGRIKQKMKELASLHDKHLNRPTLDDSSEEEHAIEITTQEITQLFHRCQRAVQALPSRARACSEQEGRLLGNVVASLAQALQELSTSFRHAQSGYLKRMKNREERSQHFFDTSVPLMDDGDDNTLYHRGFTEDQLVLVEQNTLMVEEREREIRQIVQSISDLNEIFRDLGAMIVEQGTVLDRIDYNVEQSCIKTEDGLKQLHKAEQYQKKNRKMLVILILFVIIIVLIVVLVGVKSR
UniProt Q9P2W9: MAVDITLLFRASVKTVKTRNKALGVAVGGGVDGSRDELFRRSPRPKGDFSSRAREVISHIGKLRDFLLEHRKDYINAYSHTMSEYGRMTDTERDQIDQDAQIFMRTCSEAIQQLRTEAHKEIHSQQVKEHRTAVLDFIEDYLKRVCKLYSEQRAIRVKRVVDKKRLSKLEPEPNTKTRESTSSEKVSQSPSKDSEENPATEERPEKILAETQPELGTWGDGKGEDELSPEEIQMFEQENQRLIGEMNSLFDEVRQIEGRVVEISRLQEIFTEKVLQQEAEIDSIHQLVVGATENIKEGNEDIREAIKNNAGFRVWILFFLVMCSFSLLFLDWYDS
UniProt Q13395: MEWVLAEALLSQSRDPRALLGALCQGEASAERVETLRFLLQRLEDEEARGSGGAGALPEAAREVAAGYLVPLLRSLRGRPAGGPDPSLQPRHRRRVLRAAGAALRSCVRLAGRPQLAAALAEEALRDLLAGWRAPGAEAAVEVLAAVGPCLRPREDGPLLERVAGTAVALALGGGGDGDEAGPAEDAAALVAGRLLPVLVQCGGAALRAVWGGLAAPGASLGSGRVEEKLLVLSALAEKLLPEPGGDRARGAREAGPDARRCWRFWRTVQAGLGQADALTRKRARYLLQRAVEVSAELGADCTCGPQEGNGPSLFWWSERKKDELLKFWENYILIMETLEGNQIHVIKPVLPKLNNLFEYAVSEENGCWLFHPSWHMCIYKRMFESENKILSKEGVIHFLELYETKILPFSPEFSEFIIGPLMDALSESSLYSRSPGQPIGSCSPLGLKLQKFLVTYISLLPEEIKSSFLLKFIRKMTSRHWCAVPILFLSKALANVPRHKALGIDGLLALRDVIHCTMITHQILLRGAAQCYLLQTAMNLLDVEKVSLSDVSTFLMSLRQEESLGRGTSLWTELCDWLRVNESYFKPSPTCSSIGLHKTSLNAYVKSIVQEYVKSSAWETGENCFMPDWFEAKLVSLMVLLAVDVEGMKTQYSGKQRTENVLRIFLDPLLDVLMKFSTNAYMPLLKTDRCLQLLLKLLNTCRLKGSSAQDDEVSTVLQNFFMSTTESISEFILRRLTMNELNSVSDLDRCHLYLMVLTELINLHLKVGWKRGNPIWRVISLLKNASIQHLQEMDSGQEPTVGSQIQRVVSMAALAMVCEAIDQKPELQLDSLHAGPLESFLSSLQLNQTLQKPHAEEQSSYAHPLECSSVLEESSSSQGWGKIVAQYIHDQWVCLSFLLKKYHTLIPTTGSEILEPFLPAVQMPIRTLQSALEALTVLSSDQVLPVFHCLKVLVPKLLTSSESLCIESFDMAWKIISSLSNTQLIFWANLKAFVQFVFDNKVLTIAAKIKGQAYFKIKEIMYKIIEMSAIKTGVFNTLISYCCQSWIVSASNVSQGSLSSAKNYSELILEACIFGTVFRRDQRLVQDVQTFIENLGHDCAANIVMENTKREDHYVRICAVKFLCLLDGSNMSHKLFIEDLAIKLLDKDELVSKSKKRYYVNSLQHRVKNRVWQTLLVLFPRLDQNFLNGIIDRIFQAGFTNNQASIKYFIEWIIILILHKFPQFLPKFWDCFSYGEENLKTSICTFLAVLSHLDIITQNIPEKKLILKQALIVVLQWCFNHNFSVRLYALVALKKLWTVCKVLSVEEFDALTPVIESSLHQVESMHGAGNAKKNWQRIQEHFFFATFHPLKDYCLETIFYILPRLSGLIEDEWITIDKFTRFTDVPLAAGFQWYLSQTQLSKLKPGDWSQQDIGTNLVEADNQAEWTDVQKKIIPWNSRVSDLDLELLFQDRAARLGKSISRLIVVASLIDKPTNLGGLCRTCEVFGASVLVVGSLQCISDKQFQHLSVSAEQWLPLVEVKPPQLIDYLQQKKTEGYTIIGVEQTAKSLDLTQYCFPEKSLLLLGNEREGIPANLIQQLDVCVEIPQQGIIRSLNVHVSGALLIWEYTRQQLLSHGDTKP
UniProt P63165, whole entry, looked up: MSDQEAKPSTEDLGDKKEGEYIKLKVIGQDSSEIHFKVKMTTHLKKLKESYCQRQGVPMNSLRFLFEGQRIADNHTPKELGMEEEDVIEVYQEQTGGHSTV
UniProt Q15833: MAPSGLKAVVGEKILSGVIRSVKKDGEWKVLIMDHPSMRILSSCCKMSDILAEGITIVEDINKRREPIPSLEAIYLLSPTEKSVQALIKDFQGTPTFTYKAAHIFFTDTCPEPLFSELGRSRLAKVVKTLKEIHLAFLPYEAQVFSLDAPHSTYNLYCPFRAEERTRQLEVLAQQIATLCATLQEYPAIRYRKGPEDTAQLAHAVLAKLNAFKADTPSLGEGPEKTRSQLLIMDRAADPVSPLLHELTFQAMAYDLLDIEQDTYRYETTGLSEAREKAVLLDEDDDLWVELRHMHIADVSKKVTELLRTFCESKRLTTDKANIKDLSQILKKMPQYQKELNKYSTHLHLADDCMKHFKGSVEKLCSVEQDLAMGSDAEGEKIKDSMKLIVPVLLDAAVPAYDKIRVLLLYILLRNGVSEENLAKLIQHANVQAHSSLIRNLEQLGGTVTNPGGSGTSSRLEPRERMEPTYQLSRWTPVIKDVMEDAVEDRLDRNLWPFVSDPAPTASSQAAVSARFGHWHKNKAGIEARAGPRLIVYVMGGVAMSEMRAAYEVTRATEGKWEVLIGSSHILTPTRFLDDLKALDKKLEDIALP
UniProt O60499: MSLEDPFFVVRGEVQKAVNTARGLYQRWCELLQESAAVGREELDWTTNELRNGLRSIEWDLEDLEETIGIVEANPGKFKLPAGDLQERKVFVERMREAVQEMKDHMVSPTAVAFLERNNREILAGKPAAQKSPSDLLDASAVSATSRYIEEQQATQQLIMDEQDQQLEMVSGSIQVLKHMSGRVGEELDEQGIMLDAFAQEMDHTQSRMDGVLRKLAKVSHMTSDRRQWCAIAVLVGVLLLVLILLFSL
UniProt O75528: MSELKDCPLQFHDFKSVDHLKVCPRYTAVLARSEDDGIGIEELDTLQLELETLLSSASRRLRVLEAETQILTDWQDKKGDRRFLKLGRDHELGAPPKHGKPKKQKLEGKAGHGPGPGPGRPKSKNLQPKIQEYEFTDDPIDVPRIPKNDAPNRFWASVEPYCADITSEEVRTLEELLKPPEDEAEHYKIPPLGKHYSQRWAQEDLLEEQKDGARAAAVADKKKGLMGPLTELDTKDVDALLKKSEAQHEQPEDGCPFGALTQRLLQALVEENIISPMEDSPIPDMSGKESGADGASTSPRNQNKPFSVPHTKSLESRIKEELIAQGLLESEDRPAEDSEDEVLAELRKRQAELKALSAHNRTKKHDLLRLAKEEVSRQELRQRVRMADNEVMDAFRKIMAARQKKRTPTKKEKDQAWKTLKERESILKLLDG
UniProt O43760: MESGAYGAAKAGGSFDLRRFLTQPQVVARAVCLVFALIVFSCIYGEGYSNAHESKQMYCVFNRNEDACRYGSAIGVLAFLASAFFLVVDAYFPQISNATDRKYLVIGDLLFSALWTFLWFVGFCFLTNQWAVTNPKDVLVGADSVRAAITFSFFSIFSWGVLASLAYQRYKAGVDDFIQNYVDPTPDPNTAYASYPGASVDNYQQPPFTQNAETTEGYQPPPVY
UniProt Q7Z422: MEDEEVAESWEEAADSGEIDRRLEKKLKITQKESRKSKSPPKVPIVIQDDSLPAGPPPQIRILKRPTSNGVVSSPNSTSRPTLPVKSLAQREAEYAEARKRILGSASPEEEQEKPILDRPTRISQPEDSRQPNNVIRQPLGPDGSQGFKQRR
UniProt Q9Y3F4: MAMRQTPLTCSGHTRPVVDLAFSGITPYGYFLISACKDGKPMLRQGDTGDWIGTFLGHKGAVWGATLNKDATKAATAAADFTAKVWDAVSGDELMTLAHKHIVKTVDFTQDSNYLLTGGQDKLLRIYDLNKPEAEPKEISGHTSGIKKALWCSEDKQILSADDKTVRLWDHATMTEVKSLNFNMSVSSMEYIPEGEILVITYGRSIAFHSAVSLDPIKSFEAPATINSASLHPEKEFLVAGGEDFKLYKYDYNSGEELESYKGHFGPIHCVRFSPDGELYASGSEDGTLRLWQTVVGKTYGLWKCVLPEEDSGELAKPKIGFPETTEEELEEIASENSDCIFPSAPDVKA
UniProt Q9H7L9: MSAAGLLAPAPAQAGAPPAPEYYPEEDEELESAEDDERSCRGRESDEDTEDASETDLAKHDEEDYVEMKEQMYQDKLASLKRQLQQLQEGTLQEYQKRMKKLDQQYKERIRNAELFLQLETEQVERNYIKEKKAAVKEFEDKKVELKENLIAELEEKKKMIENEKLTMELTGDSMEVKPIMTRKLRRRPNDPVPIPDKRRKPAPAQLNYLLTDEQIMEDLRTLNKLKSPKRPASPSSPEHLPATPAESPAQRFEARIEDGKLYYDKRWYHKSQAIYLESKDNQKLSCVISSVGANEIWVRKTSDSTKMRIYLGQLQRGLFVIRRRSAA

What was measured:
Test in all cases: log2 fold change, soluble protein after heating vs DMSO (PISA); higher = thermal stabilisation; K562 cells, 10 uM, 30 min; active = over 0.2 and 3.5 SD of the protein, either way, in both replicates (recomputed)
erlotinib = compound: C#Cc1cccc(Nc2ncnc3cc(OCCOC)c(OCCOC)cc23)c1 [erlotinib]
In short: (§1)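 Soluble protein was quantified by TMTpro 16plex LC-MS/MS after channel sums were equalised. It was obtained as the supernatant after 21,000xg for 90 min from pooled aliquots of K562 cells (2×10^6 cells/mL, 10 μM compound, 30 min) heated for 3 min across 48°C-58°C and extracted in PBS with 0.5% NP-40 at 4°C. Thermal stability values are relative to control samples and come from duplicates. They are given as log2 fold changes.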

[1] = compound: C/C(=N\NC(=O)C1=CC(=CC=C1)S(=O)(=O)N2CCOCC2)/C3=C(C=CC(=C3)Cl)O
In short: as §1

[2] = compound: C1=CC(=C(C=C1Cl)C2=NC3=NC=CN=C3C(=N2)NC4=CC=NC=C4)F
In short: as §1

[3] = compound: C1=CC(=CC=C1C2=NC3=C(N2)C=C(C=C3)C(=O)N)OC4=CC=C(C=C4)Cl
In short: as §1

[4] = compound: C1=CC2=C(C=CC(=C2)/C=C\3/C(=O)NC(=NCC4=CC=CS4)S3)N=C1
In short: as §1

[5] = compound: C1=CC2=NC=CN=C2C=C1/C=C/3\C(=O)NC(=O)S3
In short: as §1

[6] = compound: C1=CC=C(C=C1)C2=NC(=C(N2)C3=CC=NC=C3)C4=CC(=C(C=C4)Cl)O
In short: as §1

[7] = compound: C1=CC=C2C(=C1)C3=NNC4=CC=CC(=C43)C2=O
In short: as §1

[8] = compound: C1CCN(C1)C(=O)NC2=CC=CC(=C2)NC3=NC=C(C(=N3)NCCC4=CN=CN4)Br
In short: as §1

[9] = compound: C1CN(CCC1(CC2=CC=C(C=C2)Cl)N)C3=NC=NC4=C3C=CN4
In short: as §1

IRAK-1-4 Inhibitor I = compound: C1COCCN1CCN2C3=CC=CC=C3N=C2NC(=O)C4=CC(=CC=C4)[N+](=O)[O-] [IRAK-1-4 Inhibitor I]
In short: as §1

ibrutinib = compound: C=CC(=O)N1CCC[C@@H](n2nc(-c3ccc(Oc4ccccc4)cc3)c3c(N)ncnc32)C1 [ibrutinib]
In short: as §1

[10] = compound: CC(=O)c1cnc2ccc(-c3cc(Cl)c(O)c(Cl)c3)nc2c1N[C@H]1CC[C@H](CN(C)C)CC1
In short: as §1

ralimetinib = compound: CC(C)(C)Cn1c(N)nc2ccc(-c3[nH]c(C(C)(C)C)nc3-c3ccc(F)cc3)nc21 [ralimetinib]
In short: as §1

[11] = compound: CC(C)(O)CC(=O)NCCn1ccc2ncnc(Nc3ccc(Oc4cccc(C(F)(F)F)c4)c(Cl)c3)c21
In short: as §1

[12] = compound: CC(C)C1=C2N=C(C=C(N2N=C1)NCC3=CC=CC=C3)NCCCCCCN
In short: as §1

[13] = compound: CC(C)C[C@@H](C=O)NC(=O)[C@H](CC(C)C)NC(=O)[C@H](CC(C)C)NC(=O)OCc1ccccc1
In short: as §1

pinometostat = compound: CC(C)N(C[C@H]1O[C@@H](n2cnc3c(N)ncnc32)[C@H](O)[C@@H]1O)[C@H]1C[C@@H](CCc2nc3cc(C(C)(C)C)ccc3[nH]2)C1 [pinometostat]
In short: as §1

[14] = compound: CC1=C(C(CC(=O)N1)C2=CC=C(C=C2)C(F)(F)F)C(=O)NC3=C(C=C4C(=C3)C=NN4)F
In short: as §1

[15] = compound: CC1=C(C2=C(C=C1)C(=O)C3=CC=CC=C3N2CCCN)C
In short: as §1

| Target | log2 fold change (erlotinib) | log2 fold change [1] | log2 fold change [2] | log2 fold change [3] | log2 fold change [4] | log2 fold change [5] | log2 fold change [6] | log2 fold change [7] | log2 fold change [8] | log2 fold change [9] | log2 fold change (IRAK-1-4 Inhibitor I) | log2 fold change (ibrutinib) | log2 fold change [10] | log2 fold change (ralimetinib) | log2 fold change [11] | log2 fold change [12] | log2 fold change [13] | log2 fold change (pinometostat) | log2 fold change [14] | log2 fold change [15] |
| --- | --- | --- | --- | --- | --- | --- | --- | --- | --- | --- | --- | --- | --- | --- | --- | --- | --- | --- | --- | --- |
| SUMO3 isoform 2 (UniProt P55854) | inactive: -0.026 | inactive: -0.092 | inactive: 0.043 | inactive: 0.038 | inactive: -0.095 | inactive: 0.037 | inactive: -0.104 | inactive: -0.134 | inactive: 0.091 | inactive: 0.063 | inactive: 0.007 | inactive: 0.012 | inactive: 0.023 | inactive: 0.009 | inactive: 0.107 | inactive: 0.135 | inactive: 0.045 | inactive: 0.007 | inactive: 0.098 | inactive: -0.165 |
| STRBP (UniProt Q96SI9) | inactive: 0.035 | inactive: -0.093 | inactive: -0.198 | inactive: -0.025 | inactive: -0.039 | inactive: 0.052 | inactive: -0.005 | inactive: -0.099 | inactive: -0.025 | inactive: -0.026 | inactive: -0.131 | inactive: 0.071 | inactive: -0.042 | inactive: 0.041 | inactive: 0.017 | inactive: 0.148 | inactive: 0.066 | inactive: 0.086 | inactive: -0.017 | inactive: 0.066 |
| STX3 (UniProt Q13277) | inactive: 0.025 | inactive: -0.022 | inactive: 0.011 | inactive: 0.007 | inactive: 0.001 | inactive: 0.04 | inactive: 0.047 | inactive: -0.015 | inactive: -0.052 | inactive: 0.025 | inactive: -0.035 | inactive: -0.006 | inactive: 0.018 | inactive: -0.013 | inactive: 0.04 | inactive: -0.095 | inactive: 0.056 | inactive: -0.004 | inactive: -0.063 | inactive: 0.022 |
| STT3B (UniProt Q8TCJ2) | inactive: -0.037 | inactive: -0.053 | inactive: -0.031 | inactive: 0.024 | inactive: -0.002 | inactive: 0.06 | inactive: 0.008 | inactive: -0.028 | inactive: 0.015 | inactive: -0.023 | inactive: -0.001 | inactive: 0.006 | inactive: 0.028 | inactive: 0.006 | inactive: 0.027 | inactive: -0.007 | inactive: -0.026 | inactive: 0.029 | inactive: 0.016 | inactive: -0.011 |
| STX16 isoform 2 (UniProt O14662) | inactive: -0.022 | inactive: 0.028 | inactive: -0.069 | inactive: 0.056 | inactive: -0.006 | inactive: -0.053 | inactive: -0.024 | inactive: 0.006 | inactive: -0.031 | inactive: 0.028 | inactive: -0.013 | inactive: 0.042 | inactive: -0.011 | inactive: -0.027 | inactive: 0.171 | inactive: -0.083 | inactive: 0.312 | inactive: -0.023 | inactive: 0.019 | inactive: 0.107 |
| STX18 (UniProt Q9P2W9) | inactive: -0.009 | inactive: 0.073 | inactive: -0.03 | inactive: 0.02 | inactive: 0.031 | inactive: -0.01 | inactive: -0.023 | inactive: 0.019 | inactive: -0.017 | inactive: 0.035 | inactive: -0.025 | inactive: -0.019 | inactive: -0.079 | inactive: 0.04 | inactive: -0.006 | inactive: -0.148 | inactive: 0.066 | inactive: 0.057 | inactive: -0.04 | inactive: 0.083 |
| TARBP1 (UniProt Q13395) | inactive: 0.015 | inactive: 0.062 | inactive: 0.023 | inactive: 0.027 | inactive: -0.091 | inactive: 0.065 | inactive: -0.022 | inactive: 0.012 | inactive: -0.085 | inactive: 0.019 | inactive: 0.062 | inactive: -0.007 | inactive: -0.01 | inactive: 0.003 | inactive: -0.074 | inactive: -0.066 | inactive: 0.009 | inactive: 0.041 |  | inactive: 0.184 |
| SUMO1 (UniProt P63165) | inactive: -0.126 | inactive: 0.167 | inactive: 0.006 | inactive: -0.06 | inactive: 0.182 | inactive: 0.043 | inactive: 0.045 | inactive: -0.06 | inactive: 0.211 | inactive: 0.033 | inactive: -0.079 | inactive: -0.007 | inactive: -0.077 | inactive: 0.053 | inactive: 0.139 | inactive: -0.065 | inactive: 0.01 | inactive: 0.022 |  | inactive: -0.125 |
| STXBP2 isoform 3 (UniProt Q15833) | inactive: 0.088 | inactive: 0.139 | inactive: -0.109 | inactive: -0.049 | inactive: 0.096 | inactive: -0.004 | inactive: 0.05 | inactive: 0.026 | inactive: -0.058 | inactive: -0.166 | inactive: -0.11 | inactive: -0.057 | inactive: -0.021 | inactive: 0.172 | inactive: -0.065 | active: -0.364 | inactive: 0.147 | inactive: 0.189 |  | inactive: 0.025 |
| STX10 (UniProt O60499) | inactive: 0.149 | inactive: -0.073 | inactive: -0.052 | inactive: -0.014 | inactive: 0.049 | inactive: 0.34 | inactive: -0.07 | inactive: 0.047 | inactive: 0.041 | inactive: 0.041 | inactive: -0.083 | inactive: -0.164 | inactive: -0.037 | inactive: -0.04 | inactive: 0.085 | inactive: 0.028 | inactive: 0.024 | inactive: -0.014 | inactive: 0.059 | inactive: 0.005 |
| TADA3 (UniProt O75528) | inactive: -0.015 | inactive: 0.035 | inactive: -0.019 | inactive: 0.016 | inactive: 0.015 | inactive: 0.034 | inactive: -0.017 | inactive: -0.003 | inactive: 0.006 | inactive: 0.01 | inactive: 0.018 | inactive: -0.038 | inactive: -0.01 | inactive: -0.002 | inactive: 0.026 | inactive: -0.016 | inactive: -0.045 | inactive: 0.023 | inactive: 0.027 | inactive: 0.045 |
| SYNGR2 (UniProt O43760) | inactive: -0.001 | inactive: 0.015 | inactive: 0.033 | inactive: 0.003 | inactive: 0.124 | inactive: 0.089 | inactive: 0.039 | inactive: -0.095 | inactive: -0.012 | inactive: 0.098 | inactive: 0.037 | inactive: -0.055 | inactive: 0.009 | inactive: -0.124 | inactive: -0.035 | inactive: 0.05 | inactive: 0.037 | inactive: 0.022 | inactive: -0.03 | inactive: 0.097 |
| SZRD1 (UniProt Q7Z422) | inactive: 0.008 | inactive: -0.017 | inactive: 0.008 | inactive: 0.051 | inactive: -0.024 | inactive: -0.008 | inactive: 0.029 | inactive: -0.034 | inactive: 0.026 | inactive: -0.008 | inactive: 0.063 | inactive: -0.027 | inactive: -0.017 | inactive: -0.03 | inactive: 0.036 | inactive: 0.095 | inactive: 0.018 | inactive: -0.035 | inactive: 0.022 | inactive: -0.008 |
| STRAP isoform 2 (UniProt Q9Y3F4) | inactive: 0.011 | inactive: 0.007 | inactive: -0.019 | inactive: -0.002 | inactive: 0.032 | inactive: 0.006 | inactive: -0.017 | inactive: -0.005 | inactive: 0.011 | inactive: 0.006 | inactive: -0.005 | inactive: 0.004 | inactive: 0.018 | inactive: -0.019 | inactive: 0.013 | inactive: 0.033 | inactive: 0.006 | inactive: 0.002 | inactive: -0.012 | inactive: 0.015 |
| SUDS3 (UniProt Q9H7L9) | inactive: 0.044 | inactive: 0.125 | inactive: -0.008 | inactive: -0.069 | inactive: -0.04 | inactive: -0.057 | inactive: -0.045 | inactive: 0.098 | inactive: 0.037 | inactive: -0.001 | inactive: 0.016 | inactive: -0.052 | inactive: -0.007 | inactive: -0.129 | inactive: 0.155 | inactive: -0.028 | inactive: -0.214 | inactive: -0.041 | inactive: 0.073 | inactive: -0.074 |

Single entries from the results shown.
STRAP isoform 2 (UniProt Q9Y3F4) | log2 fold change (pinometostat): inactive: 0.002
STX16 isoform 2 (UniProt O14662) | log2 fold change (ibrutinib): inactive: 0.042
